The list shows only some results of the screen, not a fair sample: it gathers tests that were run many times, whatever their T/C, doses with no T/C, and many T/C values between a quarter and a half above the control. Other doses and runs of a compound stand elsewhere. T/C gives the treated animals as a percentage of the vehicle group. Schedules are NCI's codes, read here as Q, the interval in days (D) or hours (H), X, the number of doses. Some values lie below zero, which means that the treated tumours became smaller. Some T/C values are followed by the survivors on the day toxicity was checked, most often the fifth; where none is given, no animal had died by that day. Some entries were tested several times; the results are listed from low to high. Some entries give survivors of the animals treated and no T/C: the source files T/C as zero there, which appears to mark a toxic dose or a test without result, not a measured value. Counts of survivors are from the toxicity check (mostly the fifth day) where no day follows; animals may have died later.
Tested on: MX-1 breast xenograft, nude mice, tumor weight T/C
Experiment: NCI In Vivo Anticancer Drug Screen. Data for tumor model Human Mammary Carcinoma MX-1 Xenograft (intrarenal inoculation) in NU/NU Swiss (nude) mice
Details: T/C endpoint: mean tumor weight change, higher T/C = larger tumour; for T/C: evaluated on day 11
Summary of the method: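 Antitumour effect measured in vivo against vehicle controls, expressed as T/C.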

[1] = dose: 1200.0 mg/kg/injection, schedule: Q04DX003 (sc), vehicle: saline with Tween-80
[2] = dose: 400.0 mg/kg/injection, schedule: Q01DX010 (sc), vehicle: saline

[N-]=[N+]=CC(=O)CCC(=O)C=[N+]=[N-]
survivor count (dose: 6.0 mg/kg/injection, schedule: Q01DX010 (sc), vehicle: DMSO): 1 of 3 on day 11
survivor count (dose: 12.0 mg/kg/injection, schedule: Q01DX010 (sc), vehicle: DMSO): 0 of 3 on day 11

CCCCCCCCCCCCCCCCCC(=O)OCC(=O)OCC(=O)[C@]1(O)Cc2c(O)c3c(c(O)c2[C@@H](OC2CC(N)C(O)C(C)O2)C1)C(=O)c1c(OC)cccc1C3=O (some centres not stated)
T/C (dose: 3.0 mg/kg/injection, schedule: Q01DX010 (sc), vehicle: water): 143 % of control
survivor count (dose: 24.0 mg/kg/injection, schedule: Q01DX010 (sc), vehicle: water): 1 of 3 on day 11

CN(C)C=O
T/C (dose: 800.0 mg/kg/injection, schedule: Q01DX010 (sc), vehicle: saline): 15, 21, 27 % of control
T/C (dose: 1600.0 mg/kg/injection, schedule: Q01DX010 (sc), vehicle: saline): -80, 3, 25 [2 of 2 alive on day 11], 34 % of control [2 of 2 alive on day 11]
survivor count (dose: 6400.0 mg/kg/injection, schedule: Q01DX010 (sc), vehicle: saline): 0 of 3 on day 11
survivor count (dose: 6400.0 mg/kg/injection, schedule: Q01DX010 (sc), vehicle: suspension in saline): 0 of 3 on day 11

Cc1cc2c(c3oc(C4(C)OC4C4OC4C)cc(=O)c13)C(=O)c1c(O)c(C3CC(C)(N(C)C)C(O)C(C)O3)cc(C3CC(N(C)C)C(O)C(C)O3)c1C2=O (configuration not stated)
survivor count (dose: 0.2 mg/kg/injection, schedule: Q04DX003 (sc), vehicle: saline): 0 of 6 on day 11
survivor count (dose: 0.4 mg/kg/injection, schedule: Q04DX003 (sc), vehicle: saline): 0 of 6 on day 11

CN=S(=O)(OCCCCCOS(=O)(=NC)c1ccccc1)c1ccccc1 (configuration not stated)
T/C (dose: 300.0 mg/kg/injection, schedule: Q04DX003 (sc), vehicle: saline with Tween-80): 127 % of control
survivor count [1]: 2 of 6 on day 11
survivor count (dose: 2400.0 mg/kg/injection, schedule: Q04DX003 (sc), vehicle: saline with Tween-80): 0 of 6 on day 11

Cn1c(=O)[nH]c2nncnc2c1=O
T/C (dose: 62.5 mg/kg/injection, schedule: Q04DX003 (sc), vehicle: water): 145 % of control [5 of 6 alive on day 11]
survivor count (dose: 250.0 mg/kg/injection, schedule: Q04DX003 (sc), vehicle: water): 1 of 6 on day 11
survivor count (dose: 500.0 mg/kg/injection, schedule: Q04DX003 (sc), vehicle: water): 0 of 6 on day 11

C[n+]1ccc(Nc2ccc(NC(=O)c3ccc(Nc4cc[n+](C)c5ccc(N)cc45)cc3)cc2)cc1
survivor count (dose: 100.0 mg/kg/injection, schedule: Q04DX003 (sc), vehicle: distilled water + Tween-80): 2 of 6 on day 11
survivor count (dose: 200.0 mg/kg/injection, schedule: Q04DX003 (sc), vehicle: distilled water + Tween-80): 1 of 6 on day 11
survivor count (dose: 400.0 mg/kg/injection, schedule: Q04DX003 (sc), vehicle: distilled water + Tween-80): 0 of 6 on day 11

CS(=O)(=O)OCCN(CCOS(C)(=O)=O)c1ccc(C=Nc2ccc(-c3csc(COc4ccccc4)n3)cc2)cc1
survivor count (dose: 400.0 mg/kg/injection, schedule: Q01DX010 (sc), vehicle: Klucel (hydroxypropylcellulose) (HPC)): 0 of 2 on day 11

O=Cc1c(O)c2ccccc2[nH]c1=O
survivor count [1]: 3 of 6 on day 11

N=C(N)SCc1cccc2c(=O)cc(-c3ccccc3)oc12
T/C (dose: 600.0 mg/kg/injection, schedule: Q04DX003 (sc), vehicle: suspension in saline): 144 % of control [4 of 5 alive on day 11]
T/C (dose: 1200.0 mg/kg/injection, schedule: Q04DX003 (sc), vehicle: suspension in saline): 140 % of control
T/C (dose: 2400.0 mg/kg/injection, schedule: Q04DX003 (sc), vehicle: suspension in saline): 143 % of control

Nc1nnc[se]1
survivor count (dose: 1600.0 mg/kg/injection, schedule: Q04DX003 (sc), vehicle: saline with Tween-80): 2 of 6 on day 11

COc1cc(Cc2nccc3cc(OC)c(OC)cc23)c(C(C)=O)c(OC)c1
survivor count (dose: 320.0 mg/kg/injection, schedule: Q01DX010 (sc), vehicle: saline): 0 of 3 on day 11

NC(C/[N+]([O-])=N/O)C(=O)O (configuration not stated)
survivor count (dose: 200.0 mg/kg/injection, schedule: Q01DX010 (sc), vehicle: saline): 0 of 3 on day 11
survivor count [2]: 0 of 3 on day 11

Cn1cnc([N+](=O)[O-])c1[Se]c1nc(N)nc2nc[nH]c12
survivor count (dose: 100.0 mg/kg/injection, schedule: Q01DX010 (sc), vehicle: water): 0 of 3 on day 11
survivor count (dose: 200.0 mg/kg/injection, schedule: Q01DX010 (sc), vehicle: water): 0 of 3 on day 11
survivor count (dose: 400.0 mg/kg/injection, schedule: Q01DX010 (sc), vehicle: water): 0 of 3 on day 11

Nc1ncnc2c1ccn2C1OC(CO)C(O)C1O (configuration not stated)
survivor count (dose: 8.0 mg/kg/injection, schedule: Q01DX010 (sc), vehicle: Klucel (hydroxypropylcellulose) (HPC)): 0 of 3 on day 11

Oc1cc2ccccc2c(-c2c(O)c(O)cc3ccccc23)c1O
T/C (dose: 600.0 mg/kg/injection, schedule: Q04DX003 (sc), vehicle: saline with Tween-80): 144 % of control

COc1cc([C@@H]2c3cc4c(cc3[C@@H](OC3OC5COC(C)OC5C(O)C3O)[C@H]3COC(=O)[C@H]23)OCO4)cc(OC)c1O (some centres not stated)
survivor count (dose: 32.0 mg/kg/injection, schedule: Q01DX010 (sc), vehicle: saline): 0 of 3 on day 11
survivor count (dose: 64.0 mg/kg/injection, schedule: Q01DX010 (sc), vehicle: saline): 0 of 3 on day 11

O=C1CC2(C(=O)N1CN1CCCCC1)c1ccccc1-c1ccccc12
T/C (dose: 100.0 mg/kg/injection, schedule: Q04DX003 (sc), vehicle: Klucel (hydroxypropylcellulose) (HPC)): 136 % of control

c1cc2n(n1)CCN2
survivor count [2]: 0 of 3 on day 11 and 0 of 6 on day 11

Nc1nc2n[nH]nc2c(=O)[nH]1
survivor count (dose: 300.0 mg/kg/injection, schedule: Q04DX003 (ip), vehicle: suspension in saline): 2 of 5 on day 11
survivor count (dose: 600.0 mg/kg/injection, schedule: Q04DX003 (ip), vehicle: suspension in saline): 0 of 5 on day 11 and 0 of 6 on day 11

CN(C)c1ccc2c(NCCCCCCNc3ccnc4cc(N(C)C)ccc34)ccnc2c1
T/C (dose: 75.0 mg/kg/injection, schedule: Q04DX003 (sc), vehicle: distilled water + Tween-80 + alcohol): 139 % of control

O=C(O)C(CSC(c1ccccc1)(c1ccccc1)c1ccccc1)N=Cc1cccs1 (configuration not stated)
T/C (dose: 100.0 mg/kg/injection, schedule: Q04DX003 (sc), vehicle: suspension in saline): 144 % of control
survivor count (dose: 800.0 mg/kg/injection, schedule: Q04DX003 (sc), vehicle: suspension in saline): 2 of 6 on day 11

CC[C@@]1(O)C[C@H](OC2CC(N(C)C)C(OC3CC(O)C(OC4CCC(=O)C(C)O4)C(C)O3)C(C)O2)c2c(cc3c(c2O)C(=O)c2c(O)cccc2C3=O)[C@H]1C(=O)OC (some centres not stated)
T/C (dose: 0.5 mg/kg/injection, schedule: Q01DX010 (sc), vehicle: water): 128 % of control
T/C (dose: 1.0 mg/kg/injection, schedule: Q01DX010 (sc), vehicle: water): 140 % of control
survivor count (dose: 4.0 mg/kg/injection, schedule: Q01DX010 (ip), vehicle: water): 0 of 3 on day 11
survivor count (dose: 8.0 mg/kg/injection, schedule: Q01DX010 (ip), vehicle: water): 0 of 3 on day 11

CN(C)CC(Cl)CCl (configuration not stated)
survivor count (dose: 600.0 mg/kg/injection, schedule: Q04DX003 (sc), vehicle: saline): 0 of 6 on day 11

O=NN(CCCl)C(=O)NC1OC(CO)C(O)C(O)C1O (configuration not stated)
survivor count (dose: 40.0 mg/kg/injection, schedule: Q04DX003 (sc), vehicle: saline): 3 of 6 on day 11

O=c1n(CC2CO2)c(=O)n(CC2CO2)n1CC1CO1 (configuration not stated)
survivor count (dose: 75.0 mg/kg/injection, schedule: Q04DX003 (sc), vehicle: saline): 0 of 6 on day 11

CC(C)NC(=O)N(CCCCBr)N=O
survivor count (dose: 300.0 mg/kg/injection, schedule: Q04DX003 (sc), vehicle: Klucel (hydroxypropylcellulose) (HPC)): 1 of 4 on day 11

O=S(=O)(O)O
survivor count (dose: 600.0 mg/kg/injection, schedule: Q04DX003 (sc), vehicle: Klucel (hydroxypropylcellulose) (HPC)): 3 of 6 on day 11

COc1cccc2c1C(=N)c1c(O)c3c(c(O)c1C2=O)C[C@@](O)(C(C)=O)C[C@@H]3OC1CC(N)C(O)C(C)O1 (some centres not stated)
survivor count (dose: 32.0 mg/kg/injection, schedule: Q01DX010 (sc), vehicle: water): 1 of 3 on day 11

Reference: PubChem BioAssay AID296 (DTP/NCI, 2004)
